Reference: US8569000B2, “Immunoassays using antibodies specific to carbamazepine” (priority 2011, dated 2013)
At least one structure is not confirmed: it was looked up by name or label, or the drawing left a doubt.

Test system: antibody specific to carbamazepine
Test: Interference from other drugs in the carbamazepine ELISA assay
Assay type: binding, rabbit
Conditions: chemical tested at 10.0 μg/ml; procedures of Example 4 (ELISA); duplicate
From the text: The Carbamazepine ELISA was developed with the antibody generated from Example 3. This assay is a competitive micro-immunoassay for determination of carbamazepine in a fluid sample. Carbamazepine in the fluid sample and carbamazepine derivative linked with the enzyme (HRP)-conjugate compete for the finite sites of the antibody coated on the solid surface of the microwell. If little or no carbamazepine is present in the fluid sample, more enzyme labeled carbamazepine derivative will bind to the antibody on the solid surface. Conversely, if a large or a significant amount of carbamazepine is present in the fluid sample, less enzyme labeled carbamazepine derivative will bind to the antibody, producing less color signal. The absorbance produced is inversely proportional to the amount of carbamazepine in the fluid sample.
Interference from other drugs was tested using 30 frequently used chemicals and medicines, at concentrations of 10.0 μg/ml.
The samples were tested in duplicate, following the procedures used in Example 4. All 30 samples produced a negative test result. Thus, the immunoassay of the present disclosure is specific to carbamazepine.

Compound: CNC1=Nc2ccc(Cl)cc2C(c2ccccc2)=[N+]([O-])C1 [Chlordiazepoxide]
- Equivalent Carbamazepine Conc.: <0.1 µg/mL
